PubChem BioAssay AID1259308 | NCATS, 2017
Here is one part, drawn at random, of about 59,000 reagents. Of all reagents, about 1,510 (2.6%) are marked active. 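Calls use total luciferase alone and ignore viability, so some active siRNAs may act by altering cell number.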 Not all columns of the deposit are shown.

Assay: 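Candidate targets for better recombinant protein yield in mammalian cells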 (primary screen)
Cell system: human HEK293 embryonic kidney cells stably expressing firefly luciferase (HEK-CMV-Luc2-Hygro)
Reagent: single siRNA against human genes, 0.8 pmol siRNA per well
Duration: 72 h
Detection: 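Luciferase light (ONE-Glo) measured on one replicate plate set and viability (CellTiter-Glo) on the other, scaled to a negative control siRNA, with robust z-scores and luciferase per cell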
Scale: total luciferase, z-score and total luciferase, % of control: higher = more reporter protein produced; luciferase per cell, z-score: higher = more reporter output per viable cell
Active means: 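Active when the median/MAD z-score for overall luciferase is greater than 3; a gene was taken forward for validation with new siRNAs if at least two of its three siRNAs passed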
Meaning of the calls: active = raised luciferase; inactive = no rise

gene knocked down	PubChem SID	total luciferase, z-score	total luciferase, % of control	luciferase per cell, z-score	Call
ZNF420	SID160758596	-0.716	67.7	-0.649	inactive
ZNF420	SID160758597	0.548	92.8	1.4	inactive
ZNF420	SID160758598	0.757	96.9	1.34	inactive
CHAT	SID160742414	1	102	0.557	inactive
CHAT	SID160742425	6.07	203	3.27	active
CHAT	SID160742436	-0.369	74.6	0.9	inactive
BDH1	SID160724563	1.34	109	0.194	inactive
BDH1	SID160724645	-0.454	72.9	-0.718	inactive
BDH1	SID160731676	0.485	91.5	0.11	inactive
RRAGB	SID160728176	1.24	106	0.532	inactive
RRAGB	SID160728177	0.117	84.2	0.431	inactive
RRAGB	SID160728178	0.677	95.4	0.434	inactive
SUN1	SID160736084	-0.679	68.4	-1.04	inactive
SUN1	SID160736086	-0.195	78	-0.205	inactive
SUN1	SID160736087	2.07	123	1.92	inactive
LILRB2	SID160728090	-1.15	59.1	0.645	inactive
LILRB2	SID160728091	-0.917	63.7	-0.0853	inactive
LILRB2	SID160728092	0.618	94.2	0.679	inactive
LILRA1	SID160729770	0.0972	83.8	-0.37	inactive
LILRA1	SID160729771	-0.0288	81.3	-0.387	inactive
LILRA1	SID160729772	-0.224	77.4	-0.343	inactive
PALM3	SID160764665	-1.98	42.5	0.356	inactive
PALM3	SID160764667	0.558	93	1.14	inactive
PALM3	SID160764668	-0.466	72.6	0.452	inactive
FAM238A	SID160725828	3.66	155	2.16	active
FAM238A	SID160725829	-0.554	70.9	1.05	inactive
FAM238A	SID160769594	0.898	99.8	1.12	inactive
LRRN1	SID160746458	-0.963	62.7	-1.28	inactive
LRRN1	SID160746459	-0.224	77.4	1.15	inactive
LRRN1	SID160746460	0.162	85.1	-0.106	inactive
HOXD11	SID160731083	-0.0533	80.8	-0.323	inactive
HOXD11	SID160731084	0.116	84.2	0.388	inactive
HOXD11	SID160775266	-1.07	60.5	-0.763	inactive
KRTAP12-3	SID160725166	2.11	124	1.39	inactive
KRTAP12-3	SID160725167	-0.348	75	-0.752	inactive
KRTAP12-3	SID160765554	0.185	85.6	0.337	inactive
RTN4R	SID160748240	0.809	98	1.28	inactive
RTN4R	SID160748242	1.35	109	1.51	inactive
RTN4R	SID160748243	0.445	90.7	0.923	inactive
